The target in assay [1] is T1, FLAG–HA tagged Prdm14 (FH-Prdm14), stably expressed in mESCs (mouse) (UniProt E9Q3T6).
T1 sequence: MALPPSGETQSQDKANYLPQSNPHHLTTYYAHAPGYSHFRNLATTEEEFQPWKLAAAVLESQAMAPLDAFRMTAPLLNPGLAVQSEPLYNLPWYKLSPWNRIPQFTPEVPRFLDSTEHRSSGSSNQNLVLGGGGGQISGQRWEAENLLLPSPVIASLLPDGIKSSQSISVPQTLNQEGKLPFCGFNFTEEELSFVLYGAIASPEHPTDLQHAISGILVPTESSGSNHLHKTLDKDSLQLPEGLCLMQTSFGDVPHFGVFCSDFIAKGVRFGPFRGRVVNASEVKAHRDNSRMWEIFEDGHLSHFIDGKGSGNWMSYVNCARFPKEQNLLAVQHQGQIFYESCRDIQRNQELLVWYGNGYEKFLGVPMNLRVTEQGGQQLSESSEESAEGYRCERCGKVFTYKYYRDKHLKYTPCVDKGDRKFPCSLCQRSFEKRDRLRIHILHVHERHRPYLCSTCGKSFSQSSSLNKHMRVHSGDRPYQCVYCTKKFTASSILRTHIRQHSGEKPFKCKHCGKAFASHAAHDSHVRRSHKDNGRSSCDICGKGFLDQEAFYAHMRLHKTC
Briefly: co-IP; reciprocal Mtgr1 and Prdm14 co-immunoprecipitations from FH-Prdm14 mESC nuclear extracts.

In assay [2] the target is T1, FLAG–HA tagged Prdm14 (FH-Prdm14), stably expressed in mESCs (mouse). The experiment in a line: pull-down; proteins co-precipitated with Prdm14 that was captured by monobody on M280 streptavidin dynabeads from FH-Prdm14 or wt mESC extracts; Western blot. In general terms: In western blotting, separated proteins are transferred to a membrane and probed.
Assay [3] deals with T2, endogenous Prdm14 of wt mESCs (mouse (endogenous in mESCs)) (UniProt E9Q3T6).
T2 sequence: T1 sequence
The description is as above.

Assay [4] deals with T3, full-length FH-Prdm14 E294K expressed in HEK293 cells (mouse) (UniProt E9Q3T6).
T3 sequence: T1 sequence with E294K
The experiment in a line: co-IP; HEK293 cells transfected with V5-Mtgr1 and FH-Prdm14 constructs; immunoblot with α-HA and α-V5.

The target of assay [5] is T4, full-length FH-Prdm14 expressed in HEK293 cells (mouse) (UniProt E9Q3T6).
T4 sequence: T1 sequence
The assay is described as above.

In assay [6] the target is T5, recombinant Mtgr1 NHR1 domain (residues 98–206) (mouse) (UniProt O70374).
T5 sequence (chain, biotin (biotin-acceptor tag)): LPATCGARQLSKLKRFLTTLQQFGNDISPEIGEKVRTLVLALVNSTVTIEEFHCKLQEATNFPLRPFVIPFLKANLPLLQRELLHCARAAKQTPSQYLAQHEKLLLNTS
The experiment in a line: bead-based binding assay; biotinylated Mtgr1 (NHR1) immobilised on streptavidin M280 beads, biotinylated Prdm14 in solution, detected with SAV-Dylight650 by flow cytometer; 50 mM Tris–HCl, 150 mM NaCl, pH 8, 1 mg/ml BSA, 1 mM EDTA, 0.1 mM DTT; 1:1 model; both purified. (In general: In flow cytometry, cells or beads pass a laser one at a time.)

For assay [7], the target named is T6, recombinant Mtgr1 NHR1 domain (residues 98–206) K109E (mouse) (UniProt O70374).
T6 sequence (chain, biotin (biotin-acceptor tag)): T5 sequence (chain, biotin (biotin-acceptor tag)) with K12E
The description is as above.

Assay [8] has as its target T7, recombinant Mtgr1 NHR1 domain (residues 98–206) R105D (mouse) (UniProt O70374).
T7 sequence (chain, biotin (biotin-acceptor tag)): T5 sequence (chain, biotin (biotin-acceptor tag)) with R8D
The assay is described as above.

Numbering of substitutions follows the chain as printed. Numbers in names are those of the source. Results are given in words; binding and its absence hold for the method and conditions named. For some assays here: Binding seen in cells or lysates may run through a third protein. Some entries that bind do so weakly or less than the wild type. For some assays here: Sequences can lack the tags named with a protein.

B1: Mtgr1 (myeloid translocation gene related 1), endogenous in mESCs (protein, UniProt O70374 1-594)
chain: MVGVPGAAAFQLGCEKRVPAMPGSPVEVKIQSRSSPPIMPPLPPINPGGPRPVSFTPTALSNGINHSPPTLNGAPSPPQRFSNGPASSTSSALTNQQLPATCGARQLSKLKRFLTTLQQFGNDISPEIGEKVRTLVLALVNSTVTIEEFHCKLQEATNFPLRPFVIPFLKANLPLLQRELLHCARAAKQTPSQYLAQHEHLLLNTSIASPADSSELLMEVHGNGKRPSPERRDENNFERDTVPPEPPAKRVCTISPAPRHSPALTVPLMNPGGQFHPTPPPLQHYTLEDIATSHLYREPNKMLEHREVRERHHNLSLNGGYQDELVDHRLTEREWADEWKHLDHALNCIMEMVEKTRRSMAVLRRCQESDREELNYWKRRFNENTELRKTGTELVSRQHSPGSTDSLSNDSQREFTSRPATGYVPVEFWKKTEEAVNKVKIQAMSEVQKAVAEAEQKAFEVIATERARMEQTIADVKRQAAEDAFLVINEQEESTENCWNCGRKASETCSGCNIARYCGSFCQHKDWERHHRLCGQSLHGHSPHSQSRPLLPGGRGSARSADCSVPSPALDKTSATTSRSSTPASVTAIDANGL
Regarding B1, the binding entry in assay [1], in assay [2] and in assay [3] was “binds” each time.

B2: full-length V5-tagged Mtgr1 expressed in HEK293 cells (protein, UniProt O70374 1-594)
chain: B1 chain
On to B2, for which the binding result is on record as “no binding” in assay [4] and “binds” in assay [5].

B3: full-length V5-Mtgr1 K109E expressed in HEK293 cells (protein, UniProt O70374 1-594)
chain: B1 chain with K109E
Consider B3, for which the binding entry in assay [4] is listed as “binds”; in assay [5], “no binding”.

B4: recombinant Prdm14 SET domain alone (residues 232–373) (domain or fragment, UniProt E9Q3T6 232-373)
chain: LDKDSLQLPEGLCLMQTSFGDVPHFGVFCSDFIAKGVRFGPFRGRVVNASEVKAHRDNSRMWEIFEDGHLSHFIDGKGSGNWMSYVNCARFPKEQNLLAVQHQGQIFYESCRDIQRNQELLVWYGNGYEKFLGVPMNLRVTE
modifications: biotin
Regarding B4, the binding result in assay [6] was “binds weakly”.

B5: recombinant Prdm14 (residues 184–373) E294K (domain or fragment, UniProt E9Q3T6 184-373)
chain: GFNFTEEELSFVLYGAIASPEHPTDLQHAISGILVPTESSGSNHLHKTLDKDSLQLPEGLCLMQTSFGDVPHFGVFCSDFIAKGVRFGPFRGRVVNASEVKAHRDNSRMWKIFEDGHLSHFIDGKGSGNWMSYVNCARFPKEQNLLAVQHQGQIFYESCRDIQRNQELLVWYGNGYEKFLGVPMNLRVTE
modifications: biotin (biotin-acceptor tag)
For B5, the binding entry in assay [6] is listed as “no binding”.

B6: recombinant Prdm14 pre-SET+SET domains (residues 184–373) (domain or fragment, UniProt E9Q3T6 184-373)
chain: B5 chain with K111E
modifications: biotin (biotin-acceptor tag)
For B6, the binding entry in assay [7] and in assay [8] was “no binding” throughout.

These data come from publication PMC4749557.
